Results: PubChem BioAssay AID743255 (National Center for Advancing Translational Sciences (NCATS), 2014)
The campaign covered roughly 390,000 compounds. About 910 (0.23%) were called active. This list was built around the results that the source calls inconclusive (neither active nor inactive); the mix of calls is not that of the screen. Calls come from the whole dose curve; as a rule, active = well fitted inhibition curve with a large enough effect; inconclusive = small, poorly fitted or top-dose-only effect; inactive = no such curve, though single readings can be large or run the other way. A potency beside an inconclusive call is a rough fit, not a confirmed value.
Note: nearly all actives have a fitted effect of over 60% in size.
Potency is the fitted concentration of half-maximal effect.

Protein sequences, listed by entry. Tags and fused reporters are not part of them. Lines headed by an entry give the natural chain unless they say otherwise; changes in a name come on top.
UniProt O94782: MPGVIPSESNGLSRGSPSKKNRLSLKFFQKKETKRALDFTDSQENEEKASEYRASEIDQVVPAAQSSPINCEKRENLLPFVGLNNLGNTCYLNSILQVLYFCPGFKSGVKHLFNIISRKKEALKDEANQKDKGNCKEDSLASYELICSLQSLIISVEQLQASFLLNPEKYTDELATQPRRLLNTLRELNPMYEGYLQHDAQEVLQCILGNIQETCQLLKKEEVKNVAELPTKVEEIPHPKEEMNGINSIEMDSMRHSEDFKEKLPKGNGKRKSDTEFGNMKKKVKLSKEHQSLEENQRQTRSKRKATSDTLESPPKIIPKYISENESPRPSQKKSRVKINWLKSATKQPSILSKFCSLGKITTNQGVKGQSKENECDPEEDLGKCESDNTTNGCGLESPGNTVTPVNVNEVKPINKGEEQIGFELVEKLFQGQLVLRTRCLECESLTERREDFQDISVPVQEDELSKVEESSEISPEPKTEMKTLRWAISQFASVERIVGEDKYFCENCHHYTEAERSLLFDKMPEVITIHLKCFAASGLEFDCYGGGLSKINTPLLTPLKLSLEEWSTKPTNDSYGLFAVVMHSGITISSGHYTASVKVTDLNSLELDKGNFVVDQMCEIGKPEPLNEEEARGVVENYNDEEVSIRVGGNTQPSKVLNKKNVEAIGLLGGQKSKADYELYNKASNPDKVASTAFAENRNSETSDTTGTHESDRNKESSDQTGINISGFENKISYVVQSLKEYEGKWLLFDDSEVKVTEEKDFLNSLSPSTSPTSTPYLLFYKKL

The compounds below were run against Ubiquitin carboxyl-terminal hydrolase 1 (Homo sapiens) (UniProt O94782) (assay: Inhibitors of USP1/UAF1: Primary Screen). Settings: recombinant USP1/UAF1, Ub-Rhodamine cleavage fluorescence; series mostly up to 57.1 µM.
In short: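 USP1/UAF1 complex (1 nM) preincubated 15 min at room temperature with compound, then Ub-Rho substrate (150 nM final) added. Kinetic fluorescence at 480/540 nm over 6 reads at 60 s intervals; 50 mM HEPES pH 7.8, 0.5 mM EDTA, 0.1 mg/ml BSA, 1 mM TCEP, 0.01% Tween-20.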
`COc1ccc(C)cc1NS(=O)(=O)c1ccc(NS(=O)(=O)c2ccc(NC(C)=O)cc2)cc1` was tested, and the Potency was inconclusive: 31.6 µM [inhibitor, partial curve].
`Cc1ccc(Cl)cc1N1CCN(C(=O)c2cn(C)c3ccc(S(=O)(=O)N4CCC(C)CC4)cc3c2=O)CC1` was tested, and the Potency was “inactive”.
`O=S(=O)(Nc1nc2ccccc2nc1-[n+]1cccc(N=C([O-])c2ccc(Cl)cc2)c1)c1ccccc1` was tested, and the Potency was inconclusive: 39.8 µM [inhibitor, partial curve].
For `O=C(CCOc1ccccc1)N(Cc1cccnc1)c1nc2c(Cl)cccc2s1`, the Potency was inconclusive: 5.01 µM [inhibitor, single point].
`COC(=O)C1=C(CSc2nc3c(cc2C#N)CN(C)CC3)OC(N)=C(C#N)C1c1ccccc1F` (stereo not drawn) was tested, and the Potency was inconclusive: 31.6 µM [inhibitor, single point].
`O=C(Nc1cccnc1)OC1CCCCC1` was tested, and the Potency was inconclusive: 35.5 µM [inhibitor, partial curve].
`COc1ccccc1/C=C/C(=O)NCC(=O)N/N=C/c1ccccc1[N+](=O)[O-]` was tested, and the Potency was inconclusive: 25.1 µM [inhibitor, single point].
In the case of `O=C(O)c1ccc(Nc2nc(-c3ccccc3)nc3ccccc23)cc1`, the Potency is reported as inconclusive: 70.8 µM [inhibitor, partial curve, poor fit].
With `CCOc1ccc2c(c1)nc(SCC(=O)c1ccc(Br)s1)n2C` the Potency was “inactive”.
With `COc1ccc(C2CC(=O)Oc3cc(O)ccc32)cc1` (stereo not drawn) the Potency was inconclusive: 5.62 µM [inhibitor, partial curve].
In the case of `COc1cccc(NC(=O)c2sc3nc(C)c(C(=O)Nc4ccc(C)cc4C)c(-c4ccc(Br)cc4)c3c2N)c1`, the Potency is reported as inconclusive: 44.7 µM [inhibitor, partial curve, poor fit].
In the case of `CCNC(=S)N1CCC(C(=O)c2ccc(F)cc2)CC1`, the Potency is reported as “inactive”.
With `O=C(c1cccs1)N(Cc1ccco1)Cc1cc2ccccc2[nH]c1=O` the Potency was “inactive”.
In the case of `CCN1CC=C2C(C#N)=C(N)C(C#N)(C#N)C(CCc3ccccc3)C2C1` (stereo not drawn), the Potency is reported as active: 22.4 µM.
In the case of `O=C(N/N=C/c1sc2ccccc2c1O)c1ccccc1`, the Potency is reported as inconclusive: 28.2 µM [inhibitor, partial curve].
With `CCOc1cc(C2CC(=O)N3CN(C4CCCCC4)CSC3=C2C#N)ccc1O` (stereo not drawn) the Potency was inconclusive: 10 µM [inhibitor, partial curve].
With `COc1ccc(CN(C(=O)Nc2ccccc2)c2ccccn2)cc1OC` the Potency was inconclusive: 56.2 µM [inhibitor, partial curve, poor fit].
For `CCOC(=O)c1c(C)[nH]c(CCC(=O)Nc2ccc(N(CC)CC)cc2C)c1C`, the Potency was inconclusive: 15.8 µM [inhibitor, partial curve, poor fit].
